The supplement of paper PMC10849652
The list shows a part of the results.

Sequences of proteins named here, by UniProt entry; tags and fusion partners are left off. A change or cut given only in a name is not applied to a line headed by its entry.
UniProt Q13029: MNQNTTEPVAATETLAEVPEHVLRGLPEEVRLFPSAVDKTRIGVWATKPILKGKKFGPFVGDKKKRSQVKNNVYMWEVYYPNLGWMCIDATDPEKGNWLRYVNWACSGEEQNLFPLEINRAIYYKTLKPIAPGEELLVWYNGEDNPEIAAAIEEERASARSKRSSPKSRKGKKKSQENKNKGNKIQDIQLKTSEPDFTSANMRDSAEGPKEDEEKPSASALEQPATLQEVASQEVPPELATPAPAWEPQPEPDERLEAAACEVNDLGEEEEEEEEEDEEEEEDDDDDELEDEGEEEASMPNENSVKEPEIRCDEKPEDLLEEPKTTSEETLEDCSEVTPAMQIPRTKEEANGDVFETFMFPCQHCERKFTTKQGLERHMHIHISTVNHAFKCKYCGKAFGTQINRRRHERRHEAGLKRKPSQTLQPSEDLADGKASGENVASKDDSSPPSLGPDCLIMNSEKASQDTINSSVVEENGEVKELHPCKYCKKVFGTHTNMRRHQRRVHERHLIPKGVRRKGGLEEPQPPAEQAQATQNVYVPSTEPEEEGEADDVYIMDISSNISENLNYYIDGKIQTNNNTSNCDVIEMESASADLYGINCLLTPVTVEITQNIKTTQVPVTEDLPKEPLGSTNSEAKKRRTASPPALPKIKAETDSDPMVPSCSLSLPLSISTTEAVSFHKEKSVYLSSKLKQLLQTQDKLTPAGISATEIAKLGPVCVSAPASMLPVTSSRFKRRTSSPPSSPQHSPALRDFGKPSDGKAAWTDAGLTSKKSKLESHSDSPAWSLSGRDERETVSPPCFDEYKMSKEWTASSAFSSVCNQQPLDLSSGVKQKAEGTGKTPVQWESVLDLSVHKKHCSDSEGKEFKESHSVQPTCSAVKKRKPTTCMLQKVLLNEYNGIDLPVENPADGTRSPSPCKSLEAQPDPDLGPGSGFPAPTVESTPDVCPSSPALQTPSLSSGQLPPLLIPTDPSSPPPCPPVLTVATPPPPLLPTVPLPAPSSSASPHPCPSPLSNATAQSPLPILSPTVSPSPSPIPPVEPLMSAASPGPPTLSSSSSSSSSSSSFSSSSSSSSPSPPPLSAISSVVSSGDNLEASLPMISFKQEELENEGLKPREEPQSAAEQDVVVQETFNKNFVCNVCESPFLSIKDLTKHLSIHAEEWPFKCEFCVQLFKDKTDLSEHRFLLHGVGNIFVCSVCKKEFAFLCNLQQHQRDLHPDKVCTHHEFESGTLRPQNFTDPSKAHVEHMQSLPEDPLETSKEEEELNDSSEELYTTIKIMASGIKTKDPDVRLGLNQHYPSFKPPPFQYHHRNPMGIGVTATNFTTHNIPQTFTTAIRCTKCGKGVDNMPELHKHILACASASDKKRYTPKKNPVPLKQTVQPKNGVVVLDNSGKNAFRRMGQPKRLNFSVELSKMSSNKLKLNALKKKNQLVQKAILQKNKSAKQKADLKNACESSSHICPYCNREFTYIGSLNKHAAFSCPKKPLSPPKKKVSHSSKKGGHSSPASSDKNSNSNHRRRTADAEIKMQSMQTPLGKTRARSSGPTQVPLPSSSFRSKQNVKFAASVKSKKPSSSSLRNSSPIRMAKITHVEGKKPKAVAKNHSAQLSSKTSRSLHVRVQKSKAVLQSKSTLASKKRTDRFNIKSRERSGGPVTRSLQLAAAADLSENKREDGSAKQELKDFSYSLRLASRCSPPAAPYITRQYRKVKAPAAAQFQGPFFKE
UniProt O14668: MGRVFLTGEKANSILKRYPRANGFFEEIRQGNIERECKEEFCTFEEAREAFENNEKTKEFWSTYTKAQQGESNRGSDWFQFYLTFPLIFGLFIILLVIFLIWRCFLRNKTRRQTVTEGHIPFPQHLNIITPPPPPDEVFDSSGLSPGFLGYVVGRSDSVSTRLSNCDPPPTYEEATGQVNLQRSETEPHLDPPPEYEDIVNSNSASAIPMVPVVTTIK
UniProt O60237: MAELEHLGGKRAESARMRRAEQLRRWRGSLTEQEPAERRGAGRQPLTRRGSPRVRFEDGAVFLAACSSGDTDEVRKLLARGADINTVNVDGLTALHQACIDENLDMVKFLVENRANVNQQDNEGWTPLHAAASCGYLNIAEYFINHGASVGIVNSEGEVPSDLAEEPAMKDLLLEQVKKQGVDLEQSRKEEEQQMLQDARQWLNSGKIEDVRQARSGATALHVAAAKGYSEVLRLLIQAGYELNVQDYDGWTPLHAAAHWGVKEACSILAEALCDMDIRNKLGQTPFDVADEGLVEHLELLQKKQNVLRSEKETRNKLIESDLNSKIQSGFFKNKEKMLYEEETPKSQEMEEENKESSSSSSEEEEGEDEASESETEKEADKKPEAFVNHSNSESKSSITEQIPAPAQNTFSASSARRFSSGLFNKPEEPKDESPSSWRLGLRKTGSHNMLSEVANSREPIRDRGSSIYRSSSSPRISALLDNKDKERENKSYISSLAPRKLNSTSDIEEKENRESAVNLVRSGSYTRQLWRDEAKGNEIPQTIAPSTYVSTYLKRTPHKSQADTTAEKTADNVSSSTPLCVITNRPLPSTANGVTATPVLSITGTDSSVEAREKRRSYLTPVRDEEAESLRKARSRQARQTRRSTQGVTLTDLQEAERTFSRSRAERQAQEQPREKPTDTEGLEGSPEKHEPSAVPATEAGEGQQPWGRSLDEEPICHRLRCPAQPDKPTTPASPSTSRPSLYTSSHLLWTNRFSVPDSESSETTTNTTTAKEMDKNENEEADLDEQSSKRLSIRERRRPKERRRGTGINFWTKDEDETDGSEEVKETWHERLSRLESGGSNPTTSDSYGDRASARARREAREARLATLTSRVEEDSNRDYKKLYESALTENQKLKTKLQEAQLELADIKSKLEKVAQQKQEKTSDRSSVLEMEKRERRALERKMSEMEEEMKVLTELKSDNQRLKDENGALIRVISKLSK
UniProt Q2NL68: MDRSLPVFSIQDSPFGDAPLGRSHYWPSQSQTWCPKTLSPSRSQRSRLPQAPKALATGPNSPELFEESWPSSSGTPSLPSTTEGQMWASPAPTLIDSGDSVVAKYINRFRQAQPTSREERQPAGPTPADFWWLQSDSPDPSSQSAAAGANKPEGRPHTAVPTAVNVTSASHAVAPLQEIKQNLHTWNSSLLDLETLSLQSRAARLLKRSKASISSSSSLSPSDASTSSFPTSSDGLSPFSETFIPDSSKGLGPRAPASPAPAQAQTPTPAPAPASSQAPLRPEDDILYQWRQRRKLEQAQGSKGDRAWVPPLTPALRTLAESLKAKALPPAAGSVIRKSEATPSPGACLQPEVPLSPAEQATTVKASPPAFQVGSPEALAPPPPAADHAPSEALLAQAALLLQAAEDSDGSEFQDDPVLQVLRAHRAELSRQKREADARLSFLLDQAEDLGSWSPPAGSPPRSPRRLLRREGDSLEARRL
UniProt P13727: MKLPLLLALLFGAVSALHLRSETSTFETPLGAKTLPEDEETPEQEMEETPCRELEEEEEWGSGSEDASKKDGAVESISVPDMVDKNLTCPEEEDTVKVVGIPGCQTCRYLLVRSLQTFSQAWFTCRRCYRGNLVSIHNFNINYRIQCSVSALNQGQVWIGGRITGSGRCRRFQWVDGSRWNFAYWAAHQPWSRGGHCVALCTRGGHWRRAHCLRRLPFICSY
UniProt Q8NI37: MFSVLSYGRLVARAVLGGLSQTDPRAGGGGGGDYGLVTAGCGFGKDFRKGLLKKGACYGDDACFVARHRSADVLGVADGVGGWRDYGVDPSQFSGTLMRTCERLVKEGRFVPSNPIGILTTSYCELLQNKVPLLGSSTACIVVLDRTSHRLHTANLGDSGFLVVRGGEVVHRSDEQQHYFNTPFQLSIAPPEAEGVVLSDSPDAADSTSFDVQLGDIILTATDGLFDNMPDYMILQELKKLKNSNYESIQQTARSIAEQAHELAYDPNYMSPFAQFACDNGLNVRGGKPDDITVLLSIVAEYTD
UniProt Q9ULJ8: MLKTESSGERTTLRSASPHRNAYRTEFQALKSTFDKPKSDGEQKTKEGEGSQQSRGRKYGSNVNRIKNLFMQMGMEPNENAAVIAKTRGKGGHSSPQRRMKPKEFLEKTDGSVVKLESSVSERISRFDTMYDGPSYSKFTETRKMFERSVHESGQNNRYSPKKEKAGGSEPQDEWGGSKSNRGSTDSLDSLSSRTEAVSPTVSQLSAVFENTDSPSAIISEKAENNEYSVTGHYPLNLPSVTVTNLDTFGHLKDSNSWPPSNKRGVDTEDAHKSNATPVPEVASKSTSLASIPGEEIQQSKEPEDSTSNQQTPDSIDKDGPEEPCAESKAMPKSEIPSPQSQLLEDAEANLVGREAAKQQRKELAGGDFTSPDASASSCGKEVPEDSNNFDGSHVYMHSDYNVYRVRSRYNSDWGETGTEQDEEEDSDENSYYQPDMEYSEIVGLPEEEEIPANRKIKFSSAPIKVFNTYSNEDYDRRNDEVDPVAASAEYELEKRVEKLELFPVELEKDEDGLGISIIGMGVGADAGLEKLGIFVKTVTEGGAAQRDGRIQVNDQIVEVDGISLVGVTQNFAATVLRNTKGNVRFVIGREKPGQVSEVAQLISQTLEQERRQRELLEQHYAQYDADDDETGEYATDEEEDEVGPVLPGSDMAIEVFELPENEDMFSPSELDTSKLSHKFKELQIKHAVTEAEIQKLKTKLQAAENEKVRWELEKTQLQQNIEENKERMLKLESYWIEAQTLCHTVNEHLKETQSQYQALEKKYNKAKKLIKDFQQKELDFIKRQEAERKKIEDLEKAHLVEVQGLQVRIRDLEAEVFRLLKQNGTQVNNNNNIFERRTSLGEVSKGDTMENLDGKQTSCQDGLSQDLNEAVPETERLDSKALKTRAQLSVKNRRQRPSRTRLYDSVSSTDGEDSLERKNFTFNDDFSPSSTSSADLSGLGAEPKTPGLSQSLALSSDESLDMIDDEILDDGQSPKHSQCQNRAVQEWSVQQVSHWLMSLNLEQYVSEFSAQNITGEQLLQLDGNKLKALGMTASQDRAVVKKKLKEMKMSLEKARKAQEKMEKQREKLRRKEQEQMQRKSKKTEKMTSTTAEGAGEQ
UniProt Q569H4: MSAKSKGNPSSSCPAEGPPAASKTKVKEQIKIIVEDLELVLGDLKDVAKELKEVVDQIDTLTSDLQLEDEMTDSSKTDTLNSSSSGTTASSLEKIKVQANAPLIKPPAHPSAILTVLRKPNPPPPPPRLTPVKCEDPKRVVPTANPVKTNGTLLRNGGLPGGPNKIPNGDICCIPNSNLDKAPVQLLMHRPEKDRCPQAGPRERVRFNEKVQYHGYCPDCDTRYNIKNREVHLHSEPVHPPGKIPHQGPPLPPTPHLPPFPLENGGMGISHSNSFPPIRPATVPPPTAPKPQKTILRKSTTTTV
UniProt P79522: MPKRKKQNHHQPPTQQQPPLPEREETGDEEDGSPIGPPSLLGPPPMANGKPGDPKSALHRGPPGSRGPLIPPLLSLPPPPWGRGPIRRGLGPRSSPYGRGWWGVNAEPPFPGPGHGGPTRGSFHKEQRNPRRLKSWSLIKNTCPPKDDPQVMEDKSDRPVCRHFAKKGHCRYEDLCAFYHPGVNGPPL
UniProt P51817: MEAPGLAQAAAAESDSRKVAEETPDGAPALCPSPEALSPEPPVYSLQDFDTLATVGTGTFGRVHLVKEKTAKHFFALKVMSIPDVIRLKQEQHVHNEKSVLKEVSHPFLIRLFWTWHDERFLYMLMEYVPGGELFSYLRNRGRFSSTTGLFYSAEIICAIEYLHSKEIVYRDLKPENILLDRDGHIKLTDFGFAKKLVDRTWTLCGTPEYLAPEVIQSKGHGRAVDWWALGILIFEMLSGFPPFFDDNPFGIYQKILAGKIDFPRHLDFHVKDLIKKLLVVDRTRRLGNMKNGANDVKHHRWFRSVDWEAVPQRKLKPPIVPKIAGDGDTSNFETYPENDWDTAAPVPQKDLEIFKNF
UniProt O43663: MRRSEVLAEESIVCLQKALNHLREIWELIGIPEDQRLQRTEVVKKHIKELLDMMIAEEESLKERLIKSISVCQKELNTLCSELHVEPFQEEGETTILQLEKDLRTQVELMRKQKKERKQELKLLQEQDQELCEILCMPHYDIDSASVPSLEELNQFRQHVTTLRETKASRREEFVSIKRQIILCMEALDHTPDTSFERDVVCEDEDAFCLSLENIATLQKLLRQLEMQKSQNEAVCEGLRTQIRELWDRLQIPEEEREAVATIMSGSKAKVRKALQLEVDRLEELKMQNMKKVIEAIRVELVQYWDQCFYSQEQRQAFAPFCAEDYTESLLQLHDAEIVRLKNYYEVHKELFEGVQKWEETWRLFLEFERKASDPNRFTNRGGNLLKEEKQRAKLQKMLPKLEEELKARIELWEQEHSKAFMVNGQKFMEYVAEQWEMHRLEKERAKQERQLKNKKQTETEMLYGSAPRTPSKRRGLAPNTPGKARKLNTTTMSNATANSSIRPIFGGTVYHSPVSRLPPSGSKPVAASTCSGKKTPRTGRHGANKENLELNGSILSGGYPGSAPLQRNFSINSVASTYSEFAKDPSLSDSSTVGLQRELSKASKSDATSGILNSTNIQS

Key:
Assay in all cases: log2 fold change, soluble protein after heating vs DMSO (PISA); higher = thermal stabilisation; K562 cells, 10 uM, 30 min; active = over 0.2 and 3.5 SD of the protein, either way, in both replicates (recomputed)
nilotinib = compound: Cc1cn(-c2cc(NC(=O)c3ccc(C)c(Nc4nccc(-c5cccnc5)n4)c3)cc(C(F)(F)F)c2)cn1 [nilotinib]
In short: (§1)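 K562 cells (2×10^6 cells/mL) were treated with 10 μM compound for 30 min, and aliquots were heated for 3 min over 48°C-58°C. Pooled aliquots were extracted in PBS with 0.5% NP-40 at 4°C, and the supernatant after 21,000xg for 90 min was measured by TMTpro 16plex LC-MS/MS with channel sums equalised. Reported thermal stability, relative to control samples and from duplicates, is a log2 fold change.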

[1] = compound: Cc1nc(Nc2n[nH]c3c2CN(C(=O)N[C@H](CN(C)C)c2ccccc2)C3(C)C)c2sccc2n1
In short: as §1

[2] = compound: Cc1ncc(-c2ccnc(Nc3ccc(S(C)(=O)=O)cc3)n2)n1C(C)C
In short: as §1

mubritinib = compound: FC(F)(F)c1ccc(/C=C/c2nc(COc3ccc(CCCCn4ccnn4)cc3)co2)cc1 [mubritinib]
In short: as §1

[3] = compound: NC(=O)c1cnc(N[C@@H]2CCCC[C@@H]2N)nc1Nc1cccc(-n2nccn2)c1
In short: as §1

[4] = compound: NC1(c2ccc(-c3nc4ccn5c(=O)[nH]nc5c4cc3-c3ccccc3)cc2)CCC1
In short: as §1

[5] = compound: NCC(=O)Nc1ccc(-n2nc(C(F)(F)F)cc2-c2ccc3c(ccc4ccccc43)c2)cc1
In short: as §1

silmitasertib = compound: O=C(O)c1ccc2c(c1)nc(Nc1cccc(Cl)c1)c1ccncc12 [silmitasertib]
In short: as §1

[6] = compound: O=C1NC(=O)C(c2cnc3ccccn23)=C1c1cn2c3c(cc(F)cc13)CN(C(=O)N1CCCCC1)CC2
In short: as §1

[7] = compound: Cc1cccc(CC(=O)N2CCc3c2ccc(-c2cn(C)c4ncnc(N)c24)c3F)n1
In short: as §1

[8] = compound: Cn1cc(-c2ccc3c(c2)CCN3C(=O)Cc2cccc(C(F)(F)F)c2)c2c(N)ncnc21
In short: as §1

tipifarnib = compound: Cn1cncc1[C@@](N)(c1ccc(Cl)cc1)c1ccc2c(c1)c(-c1cccc(Cl)c1)cc(=O)n2C [tipifarnib]
In short: as §1

vorinostat = compound: O=C(CCCCCCC(=O)Nc1ccccc1)NO [vorinostat]
In short: as §1

[9] = compound: NC(=O)Nc1cc(-c2cccc(F)c2)sc1C(=O)N[C@H]1CCCNC1
In short: as §1

entinostat = compound: Nc1ccccc1NC(=O)c1ccc(CNC(=O)OCc2cccnc2)cc1 [entinostat]
In short: as §1

bafetinib = compound: Cc1ccc(NC(=O)c2ccc(CN3CC[C@H](N(C)C)C3)c(C(F)(F)F)c2)cc1Nc1nccc(-c2cncnc2)n1 [bafetinib]
In short: as §1

dasatinib = compound: Cc1nc(Nc2ncc(C(=O)Nc3c(C)cccc3Cl)s2)cc(N2CCN(CCO)CC2)n1 [dasatinib]
In short: as §1

[10] = compound: Cn1cc(-c2ccc3nnc(C(F)(F)c4ccc5ncccc5c4)n3n2)cn1
In short: as §1

citarinostat = compound: O=C(CCCCCCNC(=O)c1cnc(N(c2ccccc2)c2ccccc2Cl)nc1)NO [citarinostat]
In short: as §1

[11] = compound: c1cc(OCCN2CCCCC2)cc(-c2n[nH]c3ccc(-c4nnc[nH]4)cc23)c1
In short: as §1

Measured: log2 fold change

PPP2R3B (UniProt Q9Y5P8)
inactive: nilotinib -0.029 | [1] 0.197 | [2] -0.086 | mubritinib -0.13 | [3] -0.097 | [4] 0.305 | [5] -0.055 | silmitasertib 0.275 | [6] -0.263

PRR14L (UniProt Q5THK1)
inactive: [7] -0.156 | nilotinib -0.027 | [1] -0.044 | [2] -0.007 | [8] 0.019 | tipifarnib -0.039 | [3] -0.205 | [5] -0.176 | vorinostat -0.009

PRR12 (UniProt Q9ULL5)
inactive: [9] 0.07 | entinostat -0.011

PRKD2 (UniProt M0R346)
inactive: bafetinib -0.147 | [7] -0.136 | [9] -0.279 | entinostat 0.032 | vorinostat 0.021 | [6] -0.15

PRKCSH (UniProt K7ELL7)
inactive: bafetinib -0.091 | nilotinib -0.03 | [1] -0.072 | dasatinib -0.132 | [2] 0.028 | [8] 0.031 | [10] -0.075 | tipifarnib 0.016 | mubritinib 0.157 | [9] 0.025 | [3] 0.023 | [4] -0.052 | [5] -0.128 | entinostat -0.106 | citarinostat 0.047 | silmitasertib 0.171 | [6] 0.034 | [11] -0.136

PRDM2 (UniProt Q13029)
inactive: [7] -0.069 | nilotinib 0.191 | [1] -0.058 | dasatinib 0.111 | [2] -0.06 | [8] -0.138 | [10] -0.152 | tipifarnib 0.004 | mubritinib -0.001 | [3] -0.002 | [4] 0.074 | [5] 0 | vorinostat -0.016 | citarinostat -0.117 | silmitasertib 0.022 | [6] 0.118 | [11] -0.006

PPP1R16A (UniProt Q96I34)
inactive: [10] 0.012

PRRG1 (UniProt O14668)
inactive: [7] -0.028 | [10] -0.016 | tipifarnib 0.061 | mubritinib 0.07 | [4] 0.099 | vorinostat -0.037 | silmitasertib 0.062

PRF1 (UniProt P14222)
inactive: bafetinib -0.06 | tipifarnib -0.007 | [9] -0.087 | entinostat -0.191 | [6] 0.018

PROSER1 (UniProt Q86XN7)
inactive: [10] 0.145 | tipifarnib 0.03 | [9] -0.106 | entinostat -0.122

PPP2R3C (UniProt Q969Q6)
inactive: citarinostat 0.028 | [11] -0.313

PPP1R12B isoform 6 (UniProt O60237)
inactive: bafetinib -0.024 | nilotinib -0.004 | [1] -0.191 | [2] 0.007

PROSER3 (UniProt Q2NL68)
inactive: bafetinib -0.08 | nilotinib -0.08 | [1] -0.092 | dasatinib -0.052 | [2] -0.229 | [8] 0.006 | tipifarnib 0.18

Copied from the results shown (2 entries):
PROSER1 (UniProt Q86XN7)
inactive: [10] 0.145 | tipifarnib 0.03 | [9] -0.106 | entinostat -0.122

PPP2R3C (UniProt Q969Q6)
inactive: citarinostat 0.028 | [11] -0.313

Additional entries follow:

PPP1R14B (UniProt Q96C90)
inactive: bafetinib 0.04 | nilotinib 0.01 | [1] -0.044 | dasatinib -0.225 | [2] 0.034 | [8] 0.236 | [10] -0.016 | tipifarnib -0.189 | mubritinib -0.016 | [9] -0.084 | [3] 0.185 | [4] 0.138 | [5] 0.24 | entinostat -0.117 | citarinostat -0.02 | silmitasertib -0.079 | [6] -0.02 | [11] 0.049

PROSER3, A0A2R8Y8D9
inactive: dasatinib -0.03 | [8] 0.047 | mubritinib -0.225 | [9] 0.014 | [3] -0.079 | [4] -0.003 | entinostat 0.02 | citarinostat -0.1 | silmitasertib 0.111 | [6] -0.089 | [11] 0.193

PRG2 (UniProt P13727)
inactive: dasatinib 0.009 | [8] -0.119 | tipifarnib 0.168 | mubritinib -0.018 | [4] -0.111 | [5] 0.152 | citarinostat 0.029 | silmitasertib 0.271 | [6] -0.163 | [11] -0.175

PPTC7 (UniProt Q8NI37)
inactive: [7] -0.139 | [5] 0.01 | vorinostat 0.037 | [6] 0.042

PPP1R9A isoform 3 (UniProt Q9ULJ8)
inactive: bafetinib -0.009 | nilotinib -0.028 | [1] -0.018 | dasatinib 0 | [2] 0.091 | [10] 0.005 | mubritinib -0.111 | [9] 0.122 | [4] 0.139 | [5] -0.133 | entinostat -0.185 | citarinostat -0.041 | silmitasertib 0.21 | [6] 0.147 | [11] -0.092

PRR16 (UniProt Q569H4)
inactive: [7] 0.13 | vorinostat -0.043

PRR3 (UniProt P79522)
inactive: [7] -0.259 | [9] 0.004 | entinostat -0.087 | vorinostat -0.078 | [6] -0.067

PRKX (UniProt P51817)
inactive: bafetinib -0.039 | mubritinib 0.108 | [4] -0.243 | silmitasertib 0.153

PPP2R2A, A0A590UJJ1
inactive: [7] -0.161 | [3] -0.26 | vorinostat -0.042

PRPF39 (UniProt Q86UA1)
inactive: dasatinib -0.044 | [8] 0.033 | tipifarnib -0.199

PRIMPOL (UniProt Q96LW4)
inactive: dasatinib 0.035 | [8] 0.021 | tipifarnib -0.143 | [9] -0.283 | [3] 0.045 | entinostat -0.112

PRH1 (UniProt P02810)
inactive: nilotinib -0.942 | [1] 0.272 | [2] -0.033

PRELID3B (UniProt Q9Y3B1)
inactive: [7] 0.049 | tipifarnib 0.545 | [3] -0.222 | vorinostat -0.076 | [6] -0.011

PPP2R5C isoform 2 (UniProt Q13362)
inactive: bafetinib 0.046 | [10] 0.037 | mubritinib -0.057 | [4] -0.183 | citarinostat 0.069 | silmitasertib -0.064 | [11] 0.105

PRC1 (UniProt O43663)
inactive: [8] -0.046 | [9] -0.084 | [3] 0.033 | entinostat 0.086
